Source: the supplement of paper PMC4604168 (melanoma cell lines)
This is one part of the list. Many values rest on one well or one pass, so single values are uncertain.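 Imaging used 1,536-well plates; nuclei positive for cleaved PARP by antibody were divided by total DNA-stained nuclei to yield the apoptosis fraction. Doses for screening kept most cells viable, and cell lines differ markedly in resting and induced cleaved-PARP levels.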

Test system: A2058
Assay: cleaved PARP positive nuclei fraction relative to DMSO control; melanoma cells; higher = more apoptosis
Conditions: library dose: low library concentration; 72 h

| SMILES | cleaved PARP positive nuclei fraction [%] |
| --- | --- |
| Cc1nc(Nc2ncc(C(=O)Nc3c(C)cccc3Cl)s2)cc(N2CCN(CCO)CC2)n1 [dasatanib] + CN(C)S(=O)(=O)c1ccc2c(c1)/C(=C/c1cc3c([nH]1)CCCC3)C(=O)N2 [SU6656] (first compound 0.004 µM, partner dose 0.4 µM) | 87.7 |
| CC(=O)c1c(C)c2cnc(Nc3ccc(N4CCNCC4)cn3)nc2n(C2CCCC2)c1=O [palbociclib] + COc1cc(Nc2ncc(F)c(Nc3ccc4c(n3)NC(=O)C(C)(C)O4)n2)cc(OC)c1OC [Tamatinib] (first compound 0.04 µM, partner dose 0.4 µM) | 177 |
| CO[C@@H]1[C@H](N(C)C(=O)c2ccccc2)C[C@H]2O[C@]1(C)n1c3ccccc3c3c4c(c5c6ccccc6n2c5c31)C(=O)NC4 [Midostaurin] + CN(NC(=O)CC(=O)NN(C)C(=S)c1ccccc1)C(=S)c1ccccc1 [STA4783] (first compound 0.08 µM, partner dose 0.006 µM) | 157 |
| Cc1cc(N2CCOCC2)cc2[nH]c(-c3c(NC[C@@H](O)c4cccc(Cl)c4)cc[nH]c3=O)nc12 + CC(C)CCN1c2nc(Nc3cc(F)c(O)c(F)c3)ncc2N(C)C(=O)C1C [BID1870] (first compound 0.2 µM, partner dose 0.2 µM) | 89.9 |
| Nc1cccc2c1CN(C1CCC(=O)NC1=O)C2=O (centres undefined) [lenalidomide] + COc1cc2c(Oc3ccc4[nH]c(C)cc4c3F)ncnc2cc1OCCCN1CCCC1 [cediranib] (first compound 1 µM, partner dose 0.4 µM) | 100 |
| CC(C)(C)c1cnc(CSc2cnc(NC(=O)C3CCNCC3)s2)o1 + O=S(=O)(c1ccccc1)N(CC(F)(F)F)c1ccc(C(O)(C(F)(F)F)C(F)(F)F)cc1 [T0901317] (first compound 0.01 µM, partner dose 1.4 µM) | 219 |
| OCc1c[nH]c2ccccc12 [Indole-3-carbinol] + NCC(=O)Nc1ccc(-n2nc(C(F)(F)F)cc2-c2ccc3c(ccc4ccccc43)c2)cc1 [OSU03012] (first compound 0.8 µM, partner dose 1 µM) | 73.6 |
| C[C@]1(c2nc3c(C(N)=O)cccc3[nH]2)CCCN1 [Veliparib] + O=c1cc(-c2cccc3c2Sc2ccccc2S3)oc(N2CCOCC2)c1 [KU55933] (first compound 1.4 µM, partner dose 1 µM) | 104 |
| CC(C)(C)c1cnc(CSc2cnc(NC(=O)C3CCNCC3)s2)o1 + COc1cc2ncnc(Nc3ccc(Oc4ccccc4)cc3)c2cc1OC [SrcI1] (first compound 0.01 µM, partner dose 2 µM) | 44.2 |
| C#Cc1cccc(Nc2ncnc3cc(OCCOC)c(OCCOC)cc23)c1 [erlotinib] + OCCn1cc(-c2cnc3nnn(Cc4ccc5ncccc5c4)c3n2)cn1 [PF04217903] (first compound 0.8 µM, partner dose 1 µM) | 115 |
| Cn1nnc2c(C(N)=O)ncn2c1=O [temozolomide] + Oc1nc(-c2ccc(C(F)(F)F)cc2)nc2c1CSCC2 [XAV939] (first compound 2 µM, partner dose 2 µM) | 164 |
| COCC[n+]1c2c(n(Cc3cnccn3)c1C)C(=O)c1ccccc1C2=O + CN(C)S(=O)(=O)c1ccc2c(c1)/C(=C/c1cc3c([nH]1)CCCC3)C(=O)N2 [SU6656] (first compound 0.0004 µM, partner dose 0.4 µM) | 261 |
| C=CCn1c(=O)c2cnc(Nc3ccc(N4CCN(C)CC4)cc3)nc2n1-c1cccc(C(C)(C)O)n1 + CN(NC(=O)CC(=O)NN(C)C(=S)c1ccccc1)C(=S)c1ccccc1 [STA4783] (first compound 0.02 µM, partner dose 0.006 µM) | 276 |
| C=CCNC1=C2C[C@@H](C)C[C@H](OC)[C@H](O)[C@@H](C)/C=C(\C)[C@H](OC(N)=O)[C@@H](OC)/C=C\C=C(/C)C(=O)NC(=CC1=O)C2=O [Tanespimycin] + COc1ccc(-c2ccc3c(N4CCOCC4)nc(N4C[C@@H](C)O[C@@H](C)C4)nc3n2)cc1CO [KU0063794] (first compound 0.002 µM, partner dose 0.02 µM) | 163 |
